Experimental findings from patent EP2420510B1 (BIO-FD&C Co., Ltd., priority 2010, dated 2013) are described below.

Some peptides are written in HELM: one residue between dots, names in brackets for other building blocks, links after the first $.

The nature of the data set: general procedure: Fmoc solid-phase peptide synthesis; HOBt/DCC. As to conditions: whole synthesis.

PEPTIDE1{[Nic].K.T.T.K.S}$$$$V2.0 displayed an isolated yield of 53%.
Next, PEPTIDE1{[Nic].Y.G.G.F.M}$$$$V2.0: 65%.
